Our source for the step yield and difficulty met values is patent publication US20100256333A1 (UNIVERSITY OF MANITOBA, priority 2009, published 2010).

The series in a line: general procedure: solution-phase peptide synthesis; TBTU, DIEA (PyBOP for hindered coupling).

HELM strings list residues between dots; [ac] is acetyl, [am] amide, other brackets name non-standard units.

For the setting “coupling step, on tripeptide 2-9”, “PEPTIDE1{[ac].L.[dF].[5'(R)-(MOM)GlcTSPro].V.[NMe2]}$$$$V2.0” gave a step yield of 92%.
“PEPTIDE1{[ac].L.[dF].[5'(R)-GlcTSPro].V.[NMe2]}$$$$V2.0” yielded a step yield (late stage modification step, on 2-11) of 90%.
Take “PEPTIDE1{[ac].L.[dF].[5'(S)-(MOM)GlcTSPro].V.[NMe2]}$$$$V2.0”: the difficulty met result (whole synthesis, scale of the general procedure 0.03 mmol) was “In this case, a low yield for tripeptide 2-10 was obtained and the dipeptide 2-8 was recovered in 45% yield”.
